Tests used:
[1] = Perfumer scaling of ease of incorporation into a fragrance composition; set-up: key: 5—Difficult; 3—Acceptable; 1—Very easy; conditions: compound at 10% (wt.) in fragrance; judged by a perfumer
[2] = Odor Value (headspace quantity divided by perception threshold); conditions: quantity in headspace (ng/l) divided by perception threshold (ng/l)

| Compound | SCORE (ease of incorporation into a fragrance composition without significant distortion) [1] | Odor Value [2] |
| --- | --- | --- |
| O=C/C=C/c1ccccc1 [Cinnamic Aldehyde, reference compound] | 5 | (Odor Value = 12000) |
| CCCCC(C)COC(=O)c1cc2ccccc2oc1=O (centres unmarked) [GR 85-6924] | 1 | – |
| CCCCC(CC)COC(=O)/C=C/c1ccc(OC)cc1 (centres unmarked) [OMC, Octyl methoxy cinnamate] | 1 | – |
| C/C(=C\c1ccccc1O)C(=O)OCCC(C)CCc1ccccc1 (centres unmarked) [GR 85-1407] | 3 | – |
| CCCCCCC(C=O)=Cc1ccccc1 [Hexyl Cinnamic Aldehyde, reference compound] | – | (Odor Value = 384 |
| CC(C)=CCCC(C)CCOC(=O)/C(C#N)=C/c1ccccc1O (centres unmarked) [GR 85-2661] | 3 | – |
| CCCCCCOC(=O)c1ccccc1 [Hexyl Benzoate, reference compound] | 3 | (Odor Value = 1000 |
| CCCCC(C)COC(=O)C1=Cc2ccc(OC)cc2CC1 (centres unmarked) [GR 85-6495] | 1 | – |
| COc1ccc(OC)c(/C=C/C(=O)OCCC(C)CCC=C(C)C)c1 (centres unmarked) [GR 85-3260] | 1 | – |
